In all, about 53,000 sequences went through this assay and about 3,700 (7%) were called active.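 The calls were made as follows: active = gene knockdowns whose robust z-score for IL-1 alpha signal is at least 2 or at most -2, so actives lie on both sides; inactive = the rest.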 Some of the results follow.
Test: Components of the Cytosolic LPS Sensing Pathway: Gene Identification via Genome-wide siRNA Screen;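 also: robust z of the log signal after scaling to non-targeting control siRNA wells of the plate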
Conditions: RAW264.7 macrophages, IL-1a HTRF, actives lie on both sides, screened at 100 nM (by protocol), cells primed 5 h with Pam3CSK4 first
Method in brief: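 Using IL-1a HTRF as read-out, the screen measured release from RAW264.7 cells after 48h siRNA knockdown (100 nM), 5 h Pam3CSK4 priming and 24 h cytosolic LipidA. Values were expressed relative to negative-control wells as robust z-scores.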

Sequence | z-score
UUGGCUGCAUUAUCAUGAGTT against Olfr311 | inactive: -0.419
GGGAACAUAAUGGAAAUGUTT against Il1f6 | inactive: 0.861
CCUGGCUAAGCUAGAGAAUTT against Camkv | inactive: -0.368
CGUGGAAAAGCUAUGUGCGTT against Lif | inactive: -0.188
GCGAGAAUUCUCUUCCAAUTT against Gsx2 | active: 2.33
GCAUAAUGUUACCUAAGUCTT against Ifngr1 | inactive: -0.442
GGUUCUUAAACUCAAAUCUTT against Alox12b | inactive: 0.131
GGUCCAGCUAUCCUUGACCTT against Hgfac | inactive: -0.541
GGUCUGUUAUGCAGAAUGCTT against Ttc39a | inactive: 0.991
CCGAGGGUACCUAAGGUUUTT against Ell3 | inactive: -0.278
GCAUAGCAGAGCUGUGCUATT against Aprt | inactive: -0.221
GGCCAUAAAACAUAAGCUATT against Tmem17 | inactive: 0.163
GGCUGUAAAUAAAUGCCUUTT against Cdc25c | inactive: 0.111
GCGCAAAAAGGGAUCUAAGTT against Ogg1 | inactive: 0.557
GGAACUGGAGAAGAUGGAGTT against Uncx | inactive: 0.748
GGGCGAGAUGCAUAAGGAUTT against Rnd2 | inactive: -0.324
GGAGGAGAACAGCAAUCUUTT against Speer4d | active: -2.38
CCAAAUGAAAUUCAUUCUCTT against Ptger2 | inactive: 0.746
GGUGCUGCACAAAUACAUATT against Eef1aknmt | inactive: 0.715
GCAUCACACCACAGAAAGUTT against Hmgcll1 | inactive: -0.616
GGCUGGUUUAUUUGUGGACTT against Cemip2 | inactive: 0.574
CGAGUGAACGUGAAAAAUGTT against Myl2 | inactive: 1.79

Pulled one by one from the entries so far:
Sequence | z-score
CGUGGAAAAGCUAUGUGCGTT against Lif | inactive: -0.188
GGAACUGGAGAAGAUGGAGTT against Uncx | inactive: 0.748

Later entries:

Sequence | z-score
GGGUGAUGCAGAUCAUCGUTT against Prkcq | inactive: -0.465
CGAGCGACUGAAAAGAUAATT against Atad3a | inactive: -0.412
CCUUAUUGGAUCUUGUUCGTT against Catsperb | inactive: 0.633
GCCACGUCUGAACACUUCATT against Vamp8 | inactive: 0.873
GCUAAUCAGGUAGUAAUUCTT against Usp9y | inactive: -0.156
GGAAGACAACAAAAGGAUGTT against Ankrd36 | inactive: 0.451
GCAUUCGUCAAAUAUUAUCTT against Fanci | inactive: 1.33
GCGAAUCUUGCUUCUGACCTT against H4c8 | active: -2.13
GGCCUUUGCUGUGAUGCUGTT against Ormdl3 | inactive: 0.185
GCCUAUUCGGAUUAUUGAUTT against Gab1 | inactive: -1.22
GGAGCUACCUGCAUGAUGATT against Spaca6 | inactive: -0.361
GGCAGAAACUAAGAAUGAATT against Mx1 | inactive: -0.292
GGCUCUGACGCAGAUCCAATT against Nifk | inactive: -0.288
GGAACUUGAGUUGCUACAGTT against Il12rb1 | inactive: -1.25
GGACUCGAACUCAGAACCATT against Gdf15 | inactive: 0.872
GGUGGAAGGACUUACAAUCTT against Hpgds | inactive: 1.07
GCCAUGACCGUUCGUGAGUTT against Kdm4a | inactive: -0.0631
CGACGUAUCCGUUCUAUAATT against Eif2s1 | inactive: -1.05
GGAGGAAGAGGAGAAUCUATT against Supt6 | active: -2.57
GCAAGAUCCGAUUUCUGAUTT against Snrpd3 | inactive: -1.74
GGAGGUGGUAUGUUUUAUATT against Lin54 | inactive: 1.5
GGCCCUCAAUGACAUAAGCTT against Srm | inactive: 0.587

Reformatted as a markdown table: part of the list above.

| Sequence | z-score |
| --- | --- |
| GGGUGAUGCAGAUCAUCGUTT against Prkcq | inactive: -0.465 |
| CGAGCGACUGAAAAGAUAATT against Atad3a | inactive: -0.412 |
| CCUUAUUGGAUCUUGUUCGTT against Catsperb | inactive: 0.633 |

The list goes on.

Sequence | z-score
GGACCUCAGUCACUUCCAATT against Etv4 | active: 2.93
GGACUAUUUCUUCAAUCCCTT against Wdr62 | inactive: 0.216
GGAGAUCUAGUGAUCUUUUTT against Pank1 | inactive: 0.427
GGCUUGAUAUUUGUGGUUGTT against Arf3 | inactive: 0.0348
GGCAAGGAAGUCUAAAGAATT against Fbxo8 | inactive: -1.05
GCACUUCGAAGAAAUAAAATT against Ahsa2 | inactive: 0.396
GGAGUAUAACUAUGGCUUCTT against Mvb12a | inactive: 0.689
GGCUAUGUUUAUAUCAUCGTT against Klhl10 | inactive: 0.275
CCACAGCCAUUCGCACAUATT against Exoc4 | inactive: 1.54
GGUACUCUACAUGCUUAAGTT against Pnpla6 | inactive: -1.48
CCCAUUCUGUAUAUAGUGCTT against Adam6a | inactive: -0.0363
CCCUUAUGAUGUAUUCCUGTT against Ddr2 | inactive: -0.903
GGAGCUAUACUGCUUUUCCTT against Mtmr7 | inactive: 1.61
GCGGGAGCGAGAAAAACUGTT against Dhx16 | inactive: -1.35
UCGCAUGCUCAUUGGCAUGTT against Fbll1 | inactive: -0.236
GCAAGCAGACUUGUCCUUCTT against Hnrnpc | inactive: -0.155
GCUGGAAAAGUGCUGUGGGTT against Sult1c1 | inactive: -0.494
GGCUGUUCUUCAAGAAUAUTT against Trim32 | inactive: 0.607
GGGAUCAUGAAACAUGUCGTT against 1700020D05Rik | inactive: -0.369
GCAAAUACGGCGGAUGAACTT against Sesn3 | inactive: -1.71
CUAUCACAGCCCUGUACUUTT against Olfr694 | inactive: -0.367
GGGAAGAUGUGGAUGUCAUTT against Oprk1 | inactive: -1.05

Sequence | z-score
CGGGACCUGUGGAAUUCUCTT against Scap | inactive: -0.689
GCCUGAUCCUAAAUUUCCUTT against Svs1 | inactive: -1.17
GCACUAAAGGGCUUUUCAUTT against Serping1 | inactive: 0.912
GGCAAUUUUCAGAGAAGUUTT against Fosb | active: -2.08
GGUACUGAGGUGAGCCUCUTT against Myocd | active: -2.45
CCUAACUUCAUCCUGUCAUTT against Tex261 | inactive: -0.0436
GCCUCGAUGGACUCAACAUTT against Crtc3 | inactive: 0.496
GGAGGAAAUAAAUAUUGGGTT against Clec9a | inactive: -0.188
CGUGCUUAAGAGUCCACUATT against H3f3a | inactive: 0.477
CGGAUUGUAAAGAACUGCATT against Sfrp1 | inactive: -0.0934
CCCAAAUUGAUCCUAGCCUTT against Prkar1b | inactive: 0.307
GGUUUUCGAUCAAGCCAUUTT against Mymk | inactive: 0.802
GGAGGAGAAAGAGGAUUCATT against Zfp653 | inactive: 0.0148
GCUUGAUGGUAAAAAGGUUTT against Atl1 | inactive: -1.18
GGCCGAAUUAAUUUCUCUGTT against Cd7 | inactive: 0.613
GGUUGUAGGCCAUAAAGAATT against Marchf5 | inactive: -0.544
CGACAAUGCCAUCGAUUCGTT against Sdc3 | inactive: 0.0399
GGGAUGAUAGAACUUCUCATT against Phospho2 | inactive: -1.8
GGAGAAACCUCAGCUAAAGTT against Artn | inactive: 0.602
GUUGAACAAUCUUGUCCUGTT against Rps25 | inactive: 0.518
GCACUGAACAGUUGAGAAATT against Zadh2 | inactive: 0.309
GGGACCGUCUUAAACAUCUTT against Rsl1d1 | active: 2.92

Sequence | z-score
GGAAGUAAAGGGAUUUAACTT against Ankrd46 | active: 2.19
GGUGAUGAUGUCCAGAAGUTT against Kdm4d | inactive: -0.913
GGCUCUGUACCAUGAGGAATT against Krt84 | inactive: 1.1
GGUGUCCAUCUACUAUGGCTT against Prrxl1 | inactive: 0.316
GGAUGAAAUCUCCAAGAAATT against Btg3 | inactive: -0.86
GCUGGUUUUCAUCUCUAAATT against Slc5a5 | inactive: 0.951
GCUGAUCAAUAACUAUGAUTT against Ezh1 | inactive: -0.866
GCCAAGAGGUUAAAAGACUTT against Rabep2 | inactive: -0.495
GGGCUCUAGAGUAAAAUAATT against H3f3b | inactive: -1.27
GGUCUCCAGACUUGUAUAATT against Klri2 | inactive: 0.225
GGAAAGGAAAGCUAUGACATT against Crhr2 | inactive: -1.02
GGAAAAGUGGACAAAAUUGTT against Ncoa6 | inactive: 1.83
GGGCUUCUGCUUCAACAUCTT against Septin6 | inactive: 0.00764
CCGAUAAAAGAUGACCUCATT against D17H6S56E-5 | inactive: -0.241
CCCAGACCAAUUCAUCUUATT against Ifngr2 | inactive: 0.0218
GGACUACAUGUUUGAAACCTT against Ugt2a1 | inactive: -1.21
GCUUUGUUUUAGGACCUUUTT against Rdh1 | inactive: 0.233
GGAAUGUGGAUAAAAACGATT against Ncam1 | inactive: 1.09
CCCAUUCCUAGGAUUAUCGTT against Arf6 | inactive: -0.384

A run of entries from further up, as a working copy:
Sequence | z-score
GGCUCUGUACCAUGAGGAATT against Krt84 | inactive: 1.1
GGUGUCCAUCUACUAUGGCTT against Prrxl1 | inactive: 0.316

Reference: PubChem BioAssay AID1508600 (Functional Genomics Laboratory (NCATS/FGL), 2020)
